The target in assay [1] is T1, N-terminal 3xHA-tagged eIF2γ (wild type) (yeast, UniProt P32481 1-527).
T1 construct: eIF2γ, yeast GCD11; GCD11 ORF + terminator cloned behind GCD11 promoter + 3xHA; also called 3xHA eIF2γ; eIF2γ^WT; source: yeast strain YP912 (gcd11Δ, sui3Δ), single-copy plasmid, in whole-cell extract; not shown: 3xHA, N-terminal, kept
In words: co-IP; 3xHA-eIF2γ precipitated with anti-HA agarose beads from 300 μg yeast WCE (YP912), 4°C, 1 h; 20 mM HEPES pH 7.5, 100 mM KCl, 5 mM MgCl2, 5 mM NaF, 1 mM EDTA, 0.2% NP-40, 1% BSA; Western blot, bands normalised to the anti-HA band. In general terms: In western blotting, separated proteins are transferred to a membrane and probed.

The chains behind the UniProt entries cited, without tags or fusion partners.
UniProt P32481: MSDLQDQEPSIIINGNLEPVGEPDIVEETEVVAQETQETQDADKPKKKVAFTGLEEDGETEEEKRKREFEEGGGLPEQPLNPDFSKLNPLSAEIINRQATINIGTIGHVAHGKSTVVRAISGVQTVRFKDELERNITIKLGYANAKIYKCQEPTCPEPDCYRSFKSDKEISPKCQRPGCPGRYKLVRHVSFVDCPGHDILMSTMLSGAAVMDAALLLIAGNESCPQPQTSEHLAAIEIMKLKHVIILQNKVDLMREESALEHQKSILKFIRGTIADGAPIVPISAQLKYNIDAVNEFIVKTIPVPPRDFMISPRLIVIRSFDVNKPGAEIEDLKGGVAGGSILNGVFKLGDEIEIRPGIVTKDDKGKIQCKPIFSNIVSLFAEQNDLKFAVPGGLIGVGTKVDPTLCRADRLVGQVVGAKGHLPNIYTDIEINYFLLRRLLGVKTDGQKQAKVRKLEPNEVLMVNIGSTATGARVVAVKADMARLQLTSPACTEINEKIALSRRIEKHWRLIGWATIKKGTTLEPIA

The target in assay [2] is 8xHis-tagged eIF2γ subunit (yeast) (UniProt P32481). Briefly: co-purification; eIF2 complex purified through 8xHis-eIF2γ from yeast YP920: Ni-NTA (500 mM KCl, 20 mM imidazole), then heparin and cation exchange columns; subunit levels in the purified complex.

Results are given in words; binding and its absence hold for the method and conditions named. For some assays here: In cells and extracts the contact can be indirect. Some binding calls cover weakened binding; strength is not graded here.

B1: 40S ribosomal protein Rps20 (protein, UniProt P38701 1-121)
chain: MSDFQKEKVEEQEQQQQQIIKIRITLTSTKVKQLENVSSNIVKNAEQHNLVKKGPVRLPTKVLKISTRKTPNGEGSKTWETYEMRIHKRYIDLEAPVQIVKRITQITIEPGVDVEVVVASN
Consider B1, for which, in assay [1], the binding entry is recorded as “no binding”.

B2: eIF2α subunit (natural protein, yeast, UniProt P20459 1-304, looked up)
chain: MSTSHCRFYENKYPEIDDIVMVNVQQIAEMGAYVKLLEYDNIEGMILLSELSRRRIRSIQKLIRVGKNDVAVVLRVDKEKGYIDLSKRRVSSEDIIKCEEKYQKSKTVHSILRYCAEKFQIPLEELYKTIAWPLSRKFGHAYEAFKLSIIDETVWEGIEPPSKDVLDELKNYISKRLTPQAVKIRADVEVSCFSYEGIDAIKDALKSAEDMSTEQMQVKVKLVAAPLYVLTTQALDKQKGIEQLESAIEKITEVITKYGGVCNITMPPKAVTATEDAELQALLESKELDNRSDSEDDEDESDDE
notes: eIF2α, yeast SUI2; chromosomal gene in the co-IP strains, whole SUI2 gene on pRS425 for the purified complex; also called SUI2; source: endogenous, yeast whole-cell extract (YP912); yeast YP920, high-copy pRS425 plasmid, co-purified in the 8xHis-eIF2 complex
B2: the binding entry in assay [2] is “binds”.

For the origin of these results see publication PMC11230868, “eIF2β zinc-binding domain interacts with the eIF2γ subunit through the guanine nucleotide binding interface to promote Met-tRNAi^Met binding” (Bioscience Reports, 2024).
